Laboratory results reported in patent US20110262561A1, “Protoilludance Norsesquiterpenoid Esters and Uses Thereof” (NATIONAL RESEARCH INSTITUTE OF CHINESE MEDICINE, priority 2010, published 2011).
For at least one compound, name, drawing or mass did not settle the structure.

Tests used:
H460 = test: Alamar blue cytotoxicity assay on H460 cancer cells; assay type: cell-based, human
Protocol: (§1) The endothelial cells (human endothelial-like cells, Eahy926) and 4 cancer cell lines (MCF-7, H460, HT-29, and CEM) were derived from the American Type Culture Collection (ATCC) and were maintained in DMEM or RPMI medium (Life Technologies) supplemented with 2 mM L-glutamine and 10% heat-inactivated fetal bovine serum (FBS) (Life Technologies) under standard culture conditions. The cell viability and cell number were determined by the Trypan Blue dye-exclusion method.
(§2) The alamar blue (AB) assay (dye purchased from Biosource International, Nivelles, Belgium) was used to estimate cell viability in accordance with procedures previously described by Fatokun et al (Bone (2006) 39, 542-551). Briefly, cells were treated with various concentration of each of the test compounds (e.g., compounds of example 1.1) at 37° C. for 48 hours, and the medium in each well was then aspirated at the end of the treatment, 100 μL of fresh medium containing 10% v/v AB was then added to the control and the treated wells, respectively. Plates were then incubated at 37° C. for 6 hour prior to measuring the absorbance at 570 nm and at 600 nm wavelengths using a spectrophotometric plate reader (DYNEX Technologies, USA). Experimental data were normalized to control values. […]

CEM = test: Alamar blue cytotoxicity assay on CEM cancer cells; assay type: cell-based
Protocol: as §1, §2

Cc1c(Cl)c(O)cc(O)c1C(=O)OCC1=C[C@@H]2CC(C)(C)C[C@@H]2[C@@]2(C)C[C@@H](O)[C@@]12O [CH-205-H, (((2R,2aS,4aS,7aS,7bR)-2,2a,4a,5,6,7,7a,7b-octahydro-2,2a-dihydroxy-6,6,7 b-trimethyl-1H-cyclobuta[e]inden-3-yl)methyl 3-chloro-4,6-dihydroxy-2-methylbenzoate)]
effective on H460 cells (H460): effective
effective on CEM cells (CEM): effective
